The record followed here is PMC9130538, “Amino acids in transmembrane helix 1 confer major functional differences between human and mouse orthologs of the polyspecific membrane transporter OCT1” (The Journal of Biological Chemistry, 2022).

The target in one data set is T1, mouse Oct1 (Mus musculus, UniProt O08966).
T1 sequence (O08966 1-556): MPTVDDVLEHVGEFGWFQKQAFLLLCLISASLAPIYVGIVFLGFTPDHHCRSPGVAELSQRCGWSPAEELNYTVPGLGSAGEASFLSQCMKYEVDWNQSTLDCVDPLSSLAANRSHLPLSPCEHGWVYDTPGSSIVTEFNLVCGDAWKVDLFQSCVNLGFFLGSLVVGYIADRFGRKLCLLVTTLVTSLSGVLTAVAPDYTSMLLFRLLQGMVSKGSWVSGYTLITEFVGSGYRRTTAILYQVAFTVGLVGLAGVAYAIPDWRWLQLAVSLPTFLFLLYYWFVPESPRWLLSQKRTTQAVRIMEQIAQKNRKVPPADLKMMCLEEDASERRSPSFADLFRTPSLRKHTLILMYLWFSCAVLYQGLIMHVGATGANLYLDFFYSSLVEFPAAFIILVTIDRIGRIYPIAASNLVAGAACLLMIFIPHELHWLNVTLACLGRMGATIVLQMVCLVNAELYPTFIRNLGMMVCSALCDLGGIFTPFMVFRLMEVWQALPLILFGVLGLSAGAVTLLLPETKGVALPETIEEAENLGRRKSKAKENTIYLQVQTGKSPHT
Briefly: Cellular uptake by HEK293 cells overexpressing mouse Oct1 (wildtype). The procedure:
(§1) Generation and characterization of these cell lines has been described in detail before ([34], [48], [49]). Cells were cultured in Dulbecco’s Modified Eagle’s Medium supplemented with 10% fetal bovine serum, 100 U/ml penicillin, and 100 μg/ml streptomycin at 37 °C and 5% CO2 and were passaged twice a week.
(§2) At 48 h prior to the experiment, 6 × 10^5 cells were seeded per well in 12-well plates. When using transiently transfected cells, 5 × 10^5 T-REx-293 cells (Life Technologies) were seeded per well in 12-well plates 72 h prior to the experiment, and they were transfected 24 h later as described previously. Twelve-well plates were precoated with poly-D-lysine.
(§3) Cellular uptake experiments were performed at 37 °C and pH 7.4 using HBSS supplemented with 10 mM Hepes (in the following referred to as HBSS+). […] Cells were washed twice with 2 ml ice-cold HBSS+ and lysed with 80% acetonitrile supplemented with internal standard, 0.1 N NaOH/0.1% SDS, or radioimmunoprecipitation buffer for LC–MS/MS, liquid scintillation counting, or fluorescence spectroscopy detection, respectively. Intracellular substrate concentrations were measured as described in the following and were then normalized to the amount of total protein in the samples as measured using the bicinchoninic acid assay ([51]). […]

For a further data set, the target named is T2, human OCT1 (Homo sapiens, UniProt O15245).
T2 sequence (O15245 1-554): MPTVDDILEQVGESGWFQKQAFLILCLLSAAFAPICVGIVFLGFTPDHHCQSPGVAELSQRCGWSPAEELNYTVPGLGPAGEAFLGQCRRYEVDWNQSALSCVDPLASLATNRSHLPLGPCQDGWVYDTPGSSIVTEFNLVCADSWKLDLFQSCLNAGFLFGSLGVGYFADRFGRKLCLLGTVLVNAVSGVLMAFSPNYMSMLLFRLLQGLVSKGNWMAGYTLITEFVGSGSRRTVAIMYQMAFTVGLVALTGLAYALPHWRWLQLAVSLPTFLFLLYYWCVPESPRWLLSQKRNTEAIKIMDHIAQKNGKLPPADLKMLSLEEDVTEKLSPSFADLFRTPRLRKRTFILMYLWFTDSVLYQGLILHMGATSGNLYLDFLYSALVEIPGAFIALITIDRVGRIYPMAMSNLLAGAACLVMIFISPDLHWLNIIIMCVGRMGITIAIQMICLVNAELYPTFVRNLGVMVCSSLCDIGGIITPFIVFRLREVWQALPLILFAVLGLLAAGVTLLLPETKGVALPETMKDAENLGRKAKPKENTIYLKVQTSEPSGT
Briefly: Cellular uptake by HEK293 cells overexpressing human OCT1 (wildtype). How it is done:
as §1, §2, §3

Setting [1] is: HEK293 stably transfected, 2 min uptake, 37 °C, pH 7.4, OCT1-mediated uptake.

Each structure is given as a SMILES string.

Regarding `CC(C)[N+]1(C)[C@@H]2CC[C@H]1C[C@@H](OC(=O)C(CO)c1ccccc1)C2` (stereo partly shown) [Ipratropium], on mouse Oct1 (setting [1]), the “vmax ± SD, mOct1” value is on record as 192.9 ± 13.1 pmol × min^−1 × mg protein^−1. Further, the “CLint ± SD, mOct1” value on mouse Oct1 (mouse, pH 7.4) is reported as 33.8 ± 10.3 μl × min^−1 × mg protein^−1. Moreover, the “vmax ± SD, hOCT1” value on human OCT1 (setting [1]) was 349 ± 53.9 pmol × min^−1 × mg protein^−1. For the same compound, on human OCT1 (human, pH 7.4), the “CLint ± SD, hOCT1” value is recorded as 32.5 ± 3.06 μl × min^−1 × mg protein^−1.
